Measured data: PubChem BioAssay AID1053208 (Peter MacCallum Cancer Centre, 2014)
Shown is an unselected part of about 17,000 reagents tested. In the full data, 788 (4.7%) were called active. 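Calls rest on z-score classes alone; an extra cut-off of viability at most 70% of control was not applied to them.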 A number with no mark means an inactive call. Reagents against one gene are numbered here. Further read-outs or replicates are left out here. No sequences are given here.

- Screen: 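Find knock-downs that sensitise mouse osteosarcoma cells to doxorubicin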 (primary screen)
- Cell system: mouse osteosarcoma cells, early-passage culture from an engineered mouse model of fibroblastic bone tumour
- Knock-down reagent: siRNA pool against mouse genes, 40 nM
- Duration: about 120 h (48 h before drug, then 72 h with drug)
- Treatment: doxorubicin 100 nM for 72 h, roughly 30-40% inhibitory dose
- Measured: 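Luminescent ATP signal taken as viability with or without 100 nM doxorubicin for 72 h; mean of two wells set against non-targeting siRNA and turned into robust z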
- Reading the numbers: viability z-score with doxorubicin: higher = more viable cells under doxorubicin; viability z-score without drug: higher = more viable cells with knock-down alone
- Active means: 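Called active if knock-down leaves viability unchanged without drug (z within -2 to 2) but lowers it with doxorubicin (z at or under -2)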

Ufsp2 (UFM1-specific peptidase 2) → combined z-score class = no change with or without drug; viability z-score with doxorubicin = -0.45; viability z-score without drug = -0.17
Arpc3 (actin related protein 2/3 complex, subunit 3) → combined z-score class = no change with or without drug; viability z-score with doxorubicin = 0.11; viability z-score without drug = 0.17
4930591A17Rik (RIKEN cDNA 4930591A17 gene) → combined z-score class = no change with or without drug; viability z-score with doxorubicin = 0.22; viability z-score without drug = -1.35
Dhcr7 (7-dehydrocholesterol reductase) → combined z-score class = no change with or without drug; viability z-score with doxorubicin = 0; viability z-score without drug = -0.17
Or52n2b (olfactory receptor family 52 subfamily N member 2B) → combined z-score class = no change with or without drug; viability z-score with doxorubicin = 0; viability z-score without drug = 0.17
Hoxd10 (homeobox D10) → combined z-score class = low cell count without drug only; viability z-score with doxorubicin = -0.67; viability z-score without drug = -2.19
Grpr (gastrin releasing peptide receptor) → combined z-score class = high cell count with doxorubicin only; viability z-score with doxorubicin = 2.81; viability z-score without drug = 0.34
Pbsn (probasin) → combined z-score class = no change with or without drug; viability z-score with doxorubicin = -0.22; viability z-score without drug = -1.01
Cdcp1 (CUB domain containing protein 1) → combined z-score class = no change with or without drug; viability z-score with doxorubicin = -0.56; viability z-score without drug = 0.51
Slc6a5 → combined z-score class = no change with or without drug; viability z-score with doxorubicin = 0.45; viability z-score without drug = 1.69
Fbxw15 (F-box and WD-40 domain protein 15) → combined z-score class = no change with or without drug; viability z-score with doxorubicin = -1.12; viability z-score without drug = -0.51
Gm20735 (predicted gene, 20735) → combined z-score class = low cell count with doxorubicin only (active); viability z-score with doxorubicin = -2.02; viability z-score without drug = -1.35
Vmn1r181 (vomeronasal 1 receptor 181) → combined z-score class = no change with or without drug; viability z-score with doxorubicin = -1.35; viability z-score without drug = -1.69
Dynlt2a1 (dynein light chain Tctex-type 2A1) → combined z-score class = no change with or without drug; viability z-score with doxorubicin = -1.35; viability z-score without drug = 0
Lrrc59 (leucine rich repeat containing 59) → combined z-score class = no change with or without drug; viability z-score with doxorubicin = 0.22; viability z-score without drug = -0.17
Hsdl2 (hydroxysteroid dehydrogenase like 2) → combined z-score class = no change with or without drug; viability z-score with doxorubicin = 0.34; viability z-score without drug = 0.67
Spire1 (spire type actin nucleation factor 1) → combined z-score class = no change with or without drug; viability z-score with doxorubicin = 1.91; viability z-score without drug = 1.18
HSPG2 → combined z-score class = no change with or without drug; viability z-score with doxorubicin = -0.67; viability z-score without drug = -1.18
Grid1 (glutamate receptor, ionotropic, delta 1) → combined z-score class = no change with or without drug; viability z-score with doxorubicin = 0.56; viability z-score without drug = -1.01
Prl8a1 (prolactin family 8, subfamily a, member 1) → combined z-score class = no change with or without drug; viability z-score with doxorubicin = 0; viability z-score without drug = 0.17
Tcp1 (t-complex protein 1) → combined z-score class = low cell count without drug only; viability z-score with doxorubicin = -0.45; viability z-score without drug = -8.43
Acot3 (acyl-CoA thioesterase 3) → combined z-score class = no change with or without drug; viability z-score with doxorubicin = -0.22; viability z-score without drug = 0.67
Vmn1r66 (vomeronasal 1 receptor 66) → combined z-score class = no change with or without drug; viability z-score with doxorubicin = -0.56; viability z-score without drug = -1.18
Rrp1b (ribosomal RNA processing 1B) → combined z-score class = no change with or without drug; viability z-score with doxorubicin = 0.22; viability z-score without drug = 0.17
Gsx2 (GS homeobox 2) → combined z-score class = no change with or without drug; viability z-score with doxorubicin = -1.8; viability z-score without drug = -0.51
Osbpl1a (oxysterol binding protein-like 1A) #1 → combined z-score class = no change with or without drug; viability z-score with doxorubicin = 1.57; viability z-score without drug = 0.84
Osbpl1a (oxysterol binding protein-like 1A) #2 → combined z-score class = high cell count without drug only; viability z-score with doxorubicin = 0.56; viability z-score without drug = 2.19
Prss44 (serine protease 44) → combined z-score class = no change with or without drug; viability z-score with doxorubicin = -1.8; viability z-score without drug = 1.18
Nampt (nicotinamide phosphoribosyltransferase) → combined z-score class = no change with or without drug; viability z-score with doxorubicin = 0.11; viability z-score without drug = -0.17
Abca1 (ATP-binding cassette, sub-family A member 1) → combined z-score class = no change with or without drug; viability z-score with doxorubicin = -0.11; viability z-score without drug = 1.18
H2-T3 (histocompatibility 2, T region locus 3) → combined z-score class = no change with or without drug; viability z-score with doxorubicin = 0; viability z-score without drug = 0.17
Tnfsf13 (tumor necrosis factor (ligand) superfamily, member 13) → combined z-score class = no change with or without drug; viability z-score with doxorubicin = 0.45; viability z-score without drug = 0.51
Efcc1 (EF hand and coiled-coil domain containing 1) → combined z-score class = no change with or without drug; viability z-score with doxorubicin = 0.9; viability z-score without drug = 0.84
Daam2 (dishevelled associated activator of morphogenesis 2) → combined z-score class = high cell count without drug only; viability z-score with doxorubicin = -0.79; viability z-score without drug = 2.02
Selenbp2 (selenium binding protein 2) → combined z-score class = no change with or without drug; viability z-score with doxorubicin = -1.46; viability z-score without drug = -0.17
Or5v1 (olfactory receptor family 5 subfamily V member 1) → combined z-score class = low cell count with doxorubicin only (active); viability z-score with doxorubicin = -2.47; viability z-score without drug = 0.51

Sorted by “viability z-score with doxorubicin” (lowest first): some entries from above.
Tcp1 (t-complex protein 1) → combined z-score class = low cell count without drug only; viability z-score with doxorubicin = -0.45; viability z-score without drug = -8.43
Prl8a1 (prolactin family 8, subfamily a, member 1) → combined z-score class = no change with or without drug; viability z-score with doxorubicin = 0; viability z-score without drug = 0.17
Grid1 (glutamate receptor, ionotropic, delta 1) → combined z-score class = no change with or without drug; viability z-score with doxorubicin = 0.56; viability z-score without drug = -1.01
